From the supplement of paper PMC10849652
The other results are listed elsewhere or left out.

Amino acid sequences for entries named in this document (tags omitted). A change or cut given only in a name is not applied to a line headed by its entry.
UniProt Q4VC31: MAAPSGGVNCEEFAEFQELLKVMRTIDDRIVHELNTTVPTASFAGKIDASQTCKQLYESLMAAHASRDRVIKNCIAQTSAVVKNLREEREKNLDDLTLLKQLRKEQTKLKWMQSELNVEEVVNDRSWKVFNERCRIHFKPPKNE
UniProt Q96F63: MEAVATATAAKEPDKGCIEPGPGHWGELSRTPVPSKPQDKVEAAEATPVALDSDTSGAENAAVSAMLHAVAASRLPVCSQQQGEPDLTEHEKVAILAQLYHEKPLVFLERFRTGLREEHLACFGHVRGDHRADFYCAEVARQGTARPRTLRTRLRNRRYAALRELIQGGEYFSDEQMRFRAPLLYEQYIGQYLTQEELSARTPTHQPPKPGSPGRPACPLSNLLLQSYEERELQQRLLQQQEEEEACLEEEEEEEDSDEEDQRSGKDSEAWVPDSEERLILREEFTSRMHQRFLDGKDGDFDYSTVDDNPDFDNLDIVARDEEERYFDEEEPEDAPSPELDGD
UniProt P14635, whole entry, looked up: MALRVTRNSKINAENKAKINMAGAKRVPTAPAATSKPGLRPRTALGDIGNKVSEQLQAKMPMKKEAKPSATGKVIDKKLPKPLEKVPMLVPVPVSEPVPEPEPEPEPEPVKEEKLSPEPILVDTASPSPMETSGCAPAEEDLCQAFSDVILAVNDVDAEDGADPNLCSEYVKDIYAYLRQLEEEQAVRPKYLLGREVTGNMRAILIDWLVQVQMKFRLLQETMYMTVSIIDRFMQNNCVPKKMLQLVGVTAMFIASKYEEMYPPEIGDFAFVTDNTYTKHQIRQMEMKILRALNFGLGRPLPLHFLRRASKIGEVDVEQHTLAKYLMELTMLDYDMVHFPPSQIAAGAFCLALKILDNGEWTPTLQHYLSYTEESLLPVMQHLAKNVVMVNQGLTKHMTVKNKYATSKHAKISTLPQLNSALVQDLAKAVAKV
UniProt Q8WXE0: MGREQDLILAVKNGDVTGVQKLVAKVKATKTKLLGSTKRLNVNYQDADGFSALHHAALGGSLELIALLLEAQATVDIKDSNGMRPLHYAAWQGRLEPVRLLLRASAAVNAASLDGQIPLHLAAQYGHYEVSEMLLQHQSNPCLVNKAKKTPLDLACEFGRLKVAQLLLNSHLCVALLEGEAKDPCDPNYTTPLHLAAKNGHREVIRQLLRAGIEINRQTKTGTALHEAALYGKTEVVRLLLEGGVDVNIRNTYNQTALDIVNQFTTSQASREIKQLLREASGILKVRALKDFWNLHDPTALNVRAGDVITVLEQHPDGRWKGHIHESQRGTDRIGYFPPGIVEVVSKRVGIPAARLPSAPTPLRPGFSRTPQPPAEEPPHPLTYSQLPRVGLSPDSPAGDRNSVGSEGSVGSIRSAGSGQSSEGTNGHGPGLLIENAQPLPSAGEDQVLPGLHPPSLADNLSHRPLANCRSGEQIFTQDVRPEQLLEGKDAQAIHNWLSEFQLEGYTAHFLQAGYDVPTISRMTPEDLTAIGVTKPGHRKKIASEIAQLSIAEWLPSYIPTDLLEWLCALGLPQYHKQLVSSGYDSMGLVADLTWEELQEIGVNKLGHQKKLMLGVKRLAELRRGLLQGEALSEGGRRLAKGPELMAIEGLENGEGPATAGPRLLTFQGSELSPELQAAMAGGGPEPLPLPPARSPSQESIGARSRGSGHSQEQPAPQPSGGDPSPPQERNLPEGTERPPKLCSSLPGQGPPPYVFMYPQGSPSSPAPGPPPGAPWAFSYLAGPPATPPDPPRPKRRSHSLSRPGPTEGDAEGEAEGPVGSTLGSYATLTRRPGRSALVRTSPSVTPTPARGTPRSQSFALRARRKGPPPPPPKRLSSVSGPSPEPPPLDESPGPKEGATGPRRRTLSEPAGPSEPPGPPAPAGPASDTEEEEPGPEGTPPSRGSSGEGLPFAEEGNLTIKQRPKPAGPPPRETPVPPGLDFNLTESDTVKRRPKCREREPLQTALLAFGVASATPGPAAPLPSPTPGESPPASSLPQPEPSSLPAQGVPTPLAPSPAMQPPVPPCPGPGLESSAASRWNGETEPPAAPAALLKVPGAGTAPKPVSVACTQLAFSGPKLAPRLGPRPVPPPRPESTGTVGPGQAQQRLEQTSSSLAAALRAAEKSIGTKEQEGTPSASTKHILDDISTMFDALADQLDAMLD
UniProt P51946: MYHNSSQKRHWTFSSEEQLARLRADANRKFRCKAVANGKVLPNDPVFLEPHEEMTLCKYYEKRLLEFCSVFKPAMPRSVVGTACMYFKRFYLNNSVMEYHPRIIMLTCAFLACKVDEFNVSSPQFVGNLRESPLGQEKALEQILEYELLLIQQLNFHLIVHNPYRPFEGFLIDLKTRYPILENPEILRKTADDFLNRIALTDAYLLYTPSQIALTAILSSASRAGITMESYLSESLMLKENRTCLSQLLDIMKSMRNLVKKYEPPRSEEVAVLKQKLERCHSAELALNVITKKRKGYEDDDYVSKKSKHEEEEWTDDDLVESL
UniProt P48643, whole entry, looked up: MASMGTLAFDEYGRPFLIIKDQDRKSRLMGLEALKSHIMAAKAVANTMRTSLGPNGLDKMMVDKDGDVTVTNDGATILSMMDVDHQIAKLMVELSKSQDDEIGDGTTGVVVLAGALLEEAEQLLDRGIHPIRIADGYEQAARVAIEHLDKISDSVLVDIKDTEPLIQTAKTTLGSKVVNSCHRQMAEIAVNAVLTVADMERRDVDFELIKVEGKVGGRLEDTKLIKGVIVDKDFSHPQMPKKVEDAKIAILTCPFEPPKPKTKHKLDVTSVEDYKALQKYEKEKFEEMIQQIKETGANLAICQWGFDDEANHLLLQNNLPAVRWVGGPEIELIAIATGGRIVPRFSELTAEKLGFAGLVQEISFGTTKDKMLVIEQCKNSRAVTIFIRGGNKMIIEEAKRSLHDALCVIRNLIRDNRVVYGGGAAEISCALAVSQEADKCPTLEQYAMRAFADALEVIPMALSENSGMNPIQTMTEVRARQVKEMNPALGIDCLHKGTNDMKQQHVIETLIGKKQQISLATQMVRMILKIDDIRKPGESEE
UniProt P35520: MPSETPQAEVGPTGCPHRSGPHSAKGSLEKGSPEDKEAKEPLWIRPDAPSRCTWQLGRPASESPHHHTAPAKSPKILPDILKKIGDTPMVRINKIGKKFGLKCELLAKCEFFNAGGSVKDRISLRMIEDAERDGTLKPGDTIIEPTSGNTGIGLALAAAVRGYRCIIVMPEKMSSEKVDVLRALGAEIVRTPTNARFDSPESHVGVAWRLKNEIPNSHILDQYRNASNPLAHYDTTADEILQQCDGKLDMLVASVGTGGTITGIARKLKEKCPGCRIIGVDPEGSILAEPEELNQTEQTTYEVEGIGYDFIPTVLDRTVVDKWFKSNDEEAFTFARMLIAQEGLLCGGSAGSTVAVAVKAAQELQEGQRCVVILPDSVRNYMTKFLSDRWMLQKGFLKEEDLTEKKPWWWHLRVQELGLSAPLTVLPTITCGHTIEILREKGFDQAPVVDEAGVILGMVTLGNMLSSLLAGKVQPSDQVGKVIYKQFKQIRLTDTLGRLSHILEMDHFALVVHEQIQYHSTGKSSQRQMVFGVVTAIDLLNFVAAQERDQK
UniProt O60563, whole entry, looked up: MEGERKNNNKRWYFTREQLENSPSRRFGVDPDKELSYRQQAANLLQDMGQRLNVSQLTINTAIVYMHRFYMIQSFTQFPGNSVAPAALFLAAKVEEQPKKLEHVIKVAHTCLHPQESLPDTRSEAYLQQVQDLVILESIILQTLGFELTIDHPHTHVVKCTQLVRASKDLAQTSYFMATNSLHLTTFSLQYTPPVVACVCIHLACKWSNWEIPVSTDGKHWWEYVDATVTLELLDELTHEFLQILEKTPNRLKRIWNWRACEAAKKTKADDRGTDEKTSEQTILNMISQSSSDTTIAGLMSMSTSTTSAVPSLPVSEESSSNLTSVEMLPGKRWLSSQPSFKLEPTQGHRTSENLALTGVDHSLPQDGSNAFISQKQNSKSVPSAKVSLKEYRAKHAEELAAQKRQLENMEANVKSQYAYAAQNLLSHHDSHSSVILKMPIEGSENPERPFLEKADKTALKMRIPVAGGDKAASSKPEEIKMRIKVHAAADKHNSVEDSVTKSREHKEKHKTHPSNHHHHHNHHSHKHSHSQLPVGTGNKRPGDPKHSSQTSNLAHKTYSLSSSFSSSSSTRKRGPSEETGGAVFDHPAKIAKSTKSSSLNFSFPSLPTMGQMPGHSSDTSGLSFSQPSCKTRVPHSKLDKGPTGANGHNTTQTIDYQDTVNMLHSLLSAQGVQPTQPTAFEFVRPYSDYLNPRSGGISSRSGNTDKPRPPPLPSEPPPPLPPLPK
UniProt Q14790: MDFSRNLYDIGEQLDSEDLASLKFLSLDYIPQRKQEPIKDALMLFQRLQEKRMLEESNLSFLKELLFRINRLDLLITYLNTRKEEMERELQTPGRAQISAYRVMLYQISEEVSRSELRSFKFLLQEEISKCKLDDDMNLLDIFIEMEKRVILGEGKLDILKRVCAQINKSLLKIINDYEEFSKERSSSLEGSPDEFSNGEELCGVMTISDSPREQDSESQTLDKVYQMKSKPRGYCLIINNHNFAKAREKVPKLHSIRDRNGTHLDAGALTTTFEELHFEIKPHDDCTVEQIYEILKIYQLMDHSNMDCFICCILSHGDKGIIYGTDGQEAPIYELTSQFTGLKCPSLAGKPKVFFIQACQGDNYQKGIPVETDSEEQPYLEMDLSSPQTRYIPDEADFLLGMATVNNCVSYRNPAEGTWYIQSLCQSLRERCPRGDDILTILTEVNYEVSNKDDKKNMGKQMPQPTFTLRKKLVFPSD
UniProt Q8IWP9: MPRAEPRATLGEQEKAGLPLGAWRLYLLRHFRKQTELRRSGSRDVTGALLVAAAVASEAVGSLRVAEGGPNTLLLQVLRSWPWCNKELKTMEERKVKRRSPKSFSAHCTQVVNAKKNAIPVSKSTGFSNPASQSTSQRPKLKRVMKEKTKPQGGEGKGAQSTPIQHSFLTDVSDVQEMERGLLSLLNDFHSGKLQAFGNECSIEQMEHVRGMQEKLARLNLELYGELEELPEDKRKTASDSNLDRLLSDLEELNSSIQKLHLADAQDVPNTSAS
UniProt Q567U6, whole entry, looked up: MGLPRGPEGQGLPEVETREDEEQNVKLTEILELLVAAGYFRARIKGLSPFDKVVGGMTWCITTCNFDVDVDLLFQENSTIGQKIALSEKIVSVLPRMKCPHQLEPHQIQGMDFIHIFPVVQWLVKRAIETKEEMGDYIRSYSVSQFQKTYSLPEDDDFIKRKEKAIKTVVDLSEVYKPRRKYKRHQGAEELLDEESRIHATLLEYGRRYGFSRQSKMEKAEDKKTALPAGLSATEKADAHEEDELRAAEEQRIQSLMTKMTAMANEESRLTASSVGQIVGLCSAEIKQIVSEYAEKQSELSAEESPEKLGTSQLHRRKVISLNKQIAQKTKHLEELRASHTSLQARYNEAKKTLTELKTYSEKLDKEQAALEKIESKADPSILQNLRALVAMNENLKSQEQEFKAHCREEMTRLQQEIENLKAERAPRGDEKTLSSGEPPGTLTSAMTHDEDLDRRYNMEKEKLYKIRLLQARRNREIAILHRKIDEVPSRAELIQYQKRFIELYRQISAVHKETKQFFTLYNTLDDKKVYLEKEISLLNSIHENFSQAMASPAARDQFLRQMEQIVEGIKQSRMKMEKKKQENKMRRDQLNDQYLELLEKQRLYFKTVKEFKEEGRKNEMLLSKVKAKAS
UniProt Q8WUD4: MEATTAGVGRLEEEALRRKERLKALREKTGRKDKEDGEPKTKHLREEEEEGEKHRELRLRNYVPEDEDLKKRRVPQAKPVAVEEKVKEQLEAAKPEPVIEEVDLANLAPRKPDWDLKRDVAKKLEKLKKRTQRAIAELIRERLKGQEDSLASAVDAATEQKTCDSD
UniProt P08962, whole entry, looked up: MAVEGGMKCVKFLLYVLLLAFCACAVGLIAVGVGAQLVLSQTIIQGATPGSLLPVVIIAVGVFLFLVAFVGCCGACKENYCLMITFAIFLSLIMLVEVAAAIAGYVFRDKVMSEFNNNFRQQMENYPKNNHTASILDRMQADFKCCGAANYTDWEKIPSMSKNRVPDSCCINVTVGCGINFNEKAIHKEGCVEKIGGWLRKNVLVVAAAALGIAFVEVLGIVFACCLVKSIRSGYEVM
UniProt Q9BSQ5: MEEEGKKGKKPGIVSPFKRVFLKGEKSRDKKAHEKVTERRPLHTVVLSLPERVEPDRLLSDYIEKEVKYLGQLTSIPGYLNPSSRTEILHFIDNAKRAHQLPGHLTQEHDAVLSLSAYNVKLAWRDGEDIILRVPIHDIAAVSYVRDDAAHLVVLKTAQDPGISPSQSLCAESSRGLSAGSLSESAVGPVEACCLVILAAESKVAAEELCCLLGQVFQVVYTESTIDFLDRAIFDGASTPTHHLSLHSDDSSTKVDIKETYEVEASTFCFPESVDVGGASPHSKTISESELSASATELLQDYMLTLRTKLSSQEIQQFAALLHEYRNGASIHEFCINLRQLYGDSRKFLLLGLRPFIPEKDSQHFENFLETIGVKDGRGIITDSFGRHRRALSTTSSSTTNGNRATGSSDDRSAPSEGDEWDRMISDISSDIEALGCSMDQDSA

Legend:
Assay in all cases: log2 fold change, soluble protein after heating vs DMSO (PISA); higher = thermal stabilisation; K562 lysate, 10 uM; active = over 0.2 and 3.5 SD of the protein, either way, in both replicates (recomputed)
lapatinib = compound: CS(=O)(=O)CCNCc1ccc(-c2ccc3ncnc(Nc4ccc(OCc5cccc(F)c5)c(Cl)c4)c3c2)o1 [lapatinib]
Procedure, shortened: (§1)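 A 30 min treatment with 10 μM compound was applied to crude K562 extract at 1 mg/mL protein in PBS pH 7.4 with 1 mM MgCl2. Heating for 3 min spanned 48°C-58°C, after which aliquots were pooled, adjusted to 0.5% NP-40 at 4°C and spun at 21,000xg for 90 min. TMTpro 16plex LC-MS/MS of the supernatant, with channel sums equalised, gave values recorded as log-two fold change in thermal stability against solvent controls, from duplicates.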

pictilisib = compound: CS(=O)(=O)N1CCN(Cc2cc3nc(-c4cccc5[nH]ncc45)nc(N4CCOCC4)c3s2)CC1 [pictilisib]
Procedure, shortened: as §1

crizotinib = compound: C[C@@H](Oc1cc(-c2cnn(C3CCNCC3)c2)cnc1N)c1c(Cl)ccc(F)c1Cl [crizotinib]
Procedure, shortened: as §1

[1] = compound: C[C@H](C1=CC=C(C=C1)C(=O)NC2=C3C=CNC3=NC=C2)N
Procedure, shortened: as §1

duvelisib = compound: C[C@H](Nc1ncnc2nc[nH]c12)c1cc2cccc(Cl)c2c(=O)n1-c1ccccc1 [duvelisib]
Procedure, shortened: as §1

gandotinib = compound: Cc1cc(Nc2cc(CN3CCOCC3)c3nc(C)c(Cc4ccc(Cl)cc4F)n3n2)n[nH]1 [gandotinib]
Procedure, shortened: as §1

tozasertib = compound: Cc1cc(Nc2cc(N3CCN(C)CC3)nc(Sc3ccc(NC(=O)C4CC4)cc3)n2)n[nH]1 [tozasertib]
Procedure, shortened: as §1

doramapimod = compound: Cc1ccc(-n2nc(C(C)(C)C)cc2NC(=O)Nc2ccc(OCCN3CCOCC3)c3ccccc23)cc1 [doramapimod]
Procedure, shortened: as §1

bafetinib = compound: Cc1ccc(NC(=O)c2ccc(CN3CC[C@H](N(C)C)C3)c(C(F)(F)F)c2)cc1Nc1nccc(-c2cncnc2)n1 [bafetinib]
Procedure, shortened: as §1

[2] = compound: Cc1cccc(CC(=O)N2CCc3c2ccc(-c2cn(C)c4ncnc(N)c24)c3F)n1
Procedure, shortened: as §1

nilotinib = compound: Cc1cn(-c2cc(NC(=O)c3ccc(C)c(Nc4nccc(-c5cccnc5)n4)c3)cc(C(F)(F)F)c2)cn1 [nilotinib]
Procedure, shortened: as §1

[3] = compound: Cc1nc(Nc2n[nH]c3c2CN(C(=O)N[C@H](CN(C)C)c2ccccc2)C3(C)C)c2sccc2n1
Procedure, shortened: as §1

dasatinib = compound: Cc1nc(Nc2ncc(C(=O)Nc3c(C)cccc3Cl)s2)cc(N2CCN(CCO)CC2)n1 [dasatinib]
Procedure, shortened: as §1

[4] = compound: Cc1ncc(-c2ccnc(Nc3ccc(S(C)(=O)=O)cc3)n2)n1C(C)C
Procedure, shortened: as §1

[5] = compound: Cn1cc(-c2ccc3c(c2)CCN3C(=O)Cc2cccc(C(F)(F)F)c2)c2c(N)ncnc21
Procedure, shortened: as §1

quisinostat = compound: Cn1cc(CNCC2CCN(c3ncc(C(=O)NO)cn3)CC2)c2ccccc21 [quisinostat]
Procedure, shortened: as §1

tipifarnib = compound: Cn1cncc1[C@@](N)(c1ccc(Cl)cc1)c1ccc2c(c1)c(-c1cccc(Cl)c1)cc(=O)n2C [tipifarnib]
Procedure, shortened: as §1

[6] = compound: NC(=O)Nc1cc(-c2cccc(F)c2)sc1C(=O)N[C@H]1CCCNC1
Procedure, shortened: as §1

[7] = compound: NC(=O)c1cnc(N[C@@H]2CCCC[C@@H]2N)nc1Nc1cccc(-n2nccn2)c1
Procedure, shortened: as §1

[8] = compound: NC1(c2ccc(-c3nc4ccn5c(=O)[nH]nc5c4cc3-c3ccccc3)cc2)CCC1
Procedure, shortened: as §1

Measured: log2 fold change

CCDC58 (UniProt Q4VC31)
inactive: lapatinib 0.015 | pictilisib -0.038 | crizotinib 0.103 | [1] 0.108 | duvelisib 0.022 | gandotinib -0.064 | tozasertib 0.009 | doramapimod -0.042 | bafetinib 0.338 | [2] -0.14 | nilotinib 0.061 | [3] -0.006 | dasatinib 0.078 | [4] -0.013 | [5] -0.011 | quisinostat 0.126 | tipifarnib 0.061 | [6] 0.007 | [7] -0.024 | [8] -0.001

CBFA2T3 (UniProt O75081)
inactive: lapatinib 0.041 | pictilisib -0.038 | crizotinib 0.013 | [1] 0.017 | duvelisib 0.006 | gandotinib -0.001 | tozasertib -0.014 | doramapimod 0.007 | bafetinib -0.007 | [2] 0.05 | nilotinib -0.018 | [3] 0.02 | dasatinib -0.026 | [4] -0.019 | [5] -0.008 | quisinostat -0.07 | tipifarnib -0.047 | [6] 0.043 | [7] 0 | [8] 0.001

CCDC97 (UniProt Q96F63)
inactive: lapatinib -0.013 | pictilisib -0.066 | crizotinib 0.04 | [1] 0.109 | duvelisib -0.042 | gandotinib -0.068 | tozasertib 0.113 | doramapimod -0.005 | bafetinib 0.036 | [2] -0.074 | nilotinib -0.005 | [3] -0.01 | dasatinib -0.005 | [4] 0.02 | [5] 0.009 | quisinostat -0.018 | tipifarnib 0.042 | [6] 0.017 | [7] -0.038 | [8] -0.008

CCNB1 (UniProt P14635)
inactive: lapatinib -0.029 | pictilisib -0.01 | crizotinib -0.024 | [1] -0.019 | duvelisib 0.033 | gandotinib -0.078 | tozasertib 0.005 | doramapimod 0.03 | bafetinib -0.004 | [2] 0.091 | nilotinib -0.04 | [3] 0.037 | dasatinib -0.016 | [5] -0.021 | quisinostat 0.035 | tipifarnib -0.005 | [6] 0.005 | [7] 0.165 | [8] 0.006
active: [4] 0.369

CASKIN2 (UniProt Q8WXE0)
inactive: lapatinib 0 | pictilisib -0.028 | crizotinib -0.025 | [1] -0.064 | duvelisib -0.037 | gandotinib -0.012 | tozasertib 0.004 | doramapimod 0.042 | bafetinib -0.076 | [2] 0.007 | nilotinib 0.012 | [3] -0.027 | dasatinib 0.018 | [4] 0.004 | [5] -0.017 | quisinostat -0.052 | tipifarnib -0.062 | [6] -0.075 | [7] 0.017 | [8] -0.062

4 consecutive entries already listed:
CBFA2T3 (UniProt O75081)
inactive: lapatinib 0.041 | pictilisib -0.038 | crizotinib 0.013 | [1] 0.017 | duvelisib 0.006 | gandotinib -0.001 | tozasertib -0.014 | doramapimod 0.007 | bafetinib -0.007 | [2] 0.05 | nilotinib -0.018 | [3] 0.02 | dasatinib -0.026 | [4] -0.019 | [5] -0.008 | quisinostat -0.07 | tipifarnib -0.047 | [6] 0.043 | [7] 0 | [8] 0.001

CCDC97 (UniProt Q96F63)
inactive: lapatinib -0.013 | pictilisib -0.066 | crizotinib 0.04 | [1] 0.109 | duvelisib -0.042 | gandotinib -0.068 | tozasertib 0.113 | doramapimod -0.005 | bafetinib 0.036 | [2] -0.074 | nilotinib -0.005 | [3] -0.01 | dasatinib -0.005 | [4] 0.02 | [5] 0.009 | quisinostat -0.018 | tipifarnib 0.042 | [6] 0.017 | [7] -0.038 | [8] -0.008

CCNB1 (UniProt P14635)
inactive: lapatinib -0.029 | pictilisib -0.01 | crizotinib -0.024 | [1] -0.019 | duvelisib 0.033 | gandotinib -0.078 | tozasertib 0.005 | doramapimod 0.03 | bafetinib -0.004 | [2] 0.091 | nilotinib -0.04 | [3] 0.037 | dasatinib -0.016 | [5] -0.021 | quisinostat 0.035 | tipifarnib -0.005 | [6] 0.005 | [7] 0.165 | [8] 0.006
active: [4] 0.369

CASKIN2 (UniProt Q8WXE0)
inactive: lapatinib 0 | pictilisib -0.028 | crizotinib -0.025 | [1] -0.064 | duvelisib -0.037 | gandotinib -0.012 | tozasertib 0.004 | doramapimod 0.042 | bafetinib -0.076 | [2] 0.007 | nilotinib 0.012 | [3] -0.027 | dasatinib 0.018 | [4] 0.004 | [5] -0.017 | quisinostat -0.052 | tipifarnib -0.062 | [6] -0.075 | [7] 0.017 | [8] -0.062

(list continues)

CCNH (UniProt P51946)
inactive: lapatinib 0.005 | pictilisib -0.012 | crizotinib 0.012 | [1] 0.026 | duvelisib 0.072 | gandotinib -0.002 | tozasertib 0.013 | doramapimod 0.037 | bafetinib -0.022 | [2] -0.023 | nilotinib -0.013 | [3] 0.106 | dasatinib 0.03 | [4] -0.001 | [5] 0.015 | quisinostat 0.016 | tipifarnib -0.043 | [6] -0.009 | [7] 0.026 | [8] 0.013

CCT5 (UniProt P48643)
inactive: lapatinib -0.005 | pictilisib 0.009 | crizotinib 0.018 | [1] -0.019 | duvelisib 0.02 | gandotinib -0.011 | tozasertib 0.036 | doramapimod 0.026 | bafetinib 0.026 | [2] 0.003 | nilotinib 0.001 | [3] 0.001 | dasatinib 0.006 | [4] -0.002 | [5] 0.012 | quisinostat 0.038 | tipifarnib 0.023 | [6] -0.024 | [7] -0.01 | [8] 0.017

CBS (UniProt P35520)
inactive: lapatinib 0.014 | pictilisib 0.003 | crizotinib 0.029 | [1] -0.034 | duvelisib 0 | gandotinib -0.014 | tozasertib 0.013 | doramapimod -0.018 | bafetinib 0.031 | [2] 0.002 | nilotinib -0.002 | [3] 0.038 | dasatinib 0.024 | [4] -0.038 | [5] 0.003 | quisinostat 0.026 | tipifarnib 0.022 | [6] 0.006 | [7] -0.002 | [8] 0.016

CCNT1 (UniProt O60563)
inactive: lapatinib 0.004 | pictilisib 0.113 | crizotinib 0.031 | [1] 0.001 | duvelisib -0.002 | gandotinib -0.037 | tozasertib -0.006 | doramapimod 0.007 | bafetinib -0.047 | [2] 0.045 | nilotinib 0.002 | [3] -0.044 | dasatinib -0.033 | [4] -0.034 | [5] -0.094 | quisinostat -0.028 | tipifarnib -0.074 | [6] 0.013 | [7] 0.191 | [8] 0.042

CASP8 isoform 9 (UniProt Q14790)
inactive: lapatinib 0.024 | pictilisib -0.055 | crizotinib 0.063 | [1] 0.042 | duvelisib -0.015 | gandotinib -0.082 | tozasertib 0.094 | doramapimod -0.029 | bafetinib -0.077 | [2] -0.059 | nilotinib 0.024 | [3] -0.025 | dasatinib 0.008 | [4] -0.031 | [5] -0.001 | quisinostat 0.103 | tipifarnib 0.026 | [6] 0.023 | [7] 0.018 | [8] 0.052

CCDC28A (UniProt Q8IWP9)
inactive: lapatinib -0.008 | pictilisib -0.057 | crizotinib 0.047 | [1] 0.017 | duvelisib -0.005 | gandotinib 0.058 | tozasertib 0.056 | doramapimod 0.024 | bafetinib 0.043 | [2] 0 | nilotinib -0.035 | [3] -0.075 | dasatinib 0.055 | [4] 0.013 | [5] -0.017 | quisinostat -0.021 | tipifarnib 0.138 | [6] -0.005 | [7] -0.042 | [8] 0

CCDC93 (UniProt Q567U6)
inactive: lapatinib -0.008 | pictilisib -0.059 | crizotinib 0.016 | [1] -0.022 | duvelisib 0.016 | gandotinib 0.018 | tozasertib -0.009 | doramapimod -0.017 | bafetinib -0.03 | [2] 0.099 | nilotinib -0.046 | [3] -0.026 | dasatinib -0.073 | [4] -0.012 | [5] 0.001 | quisinostat -0.017 | tipifarnib -0.024 | [6] 0.081 | [7] -0.013 | [8] 0.019

CCDC12 (UniProt Q8WUD4)
inactive: lapatinib 0.03 | pictilisib 0.053 | crizotinib 0.019 | [1] 0.101 | duvelisib 0.008 | gandotinib 0.008 | tozasertib 0.001 | doramapimod -0.011 | bafetinib 0.075 | [2] -0.04 | nilotinib -0.024 | [3] 0.03 | dasatinib 0.085 | [4] 0.063 | [5] 0.001 | quisinostat -0.016 | tipifarnib -0.024 | [6] -0.053 | [7] 0.006 | [8] -0.012

CD63 (UniProt P08962)
active: [1] -0.415
inactive: lapatinib 0.006 | pictilisib -0.256 | crizotinib 0.036 | duvelisib 0.025 | gandotinib 0.209 | tozasertib 0.013 | doramapimod 0.077 | bafetinib -0.08 | [2] 0.074 | nilotinib -0.053 | [3] 0.098 | dasatinib -0.034 | [4] -0.032 | [5] 0.005 | quisinostat -0.08 | tipifarnib 0.126 | [6] -0.006 | [7] -0.043 | [8] -0.009

CCM2 isoform 2 (UniProt Q9BSQ5)
inactive: lapatinib -0.014 | pictilisib 0.017 | crizotinib 0.014 | [1] -0.068 | duvelisib 0.002 | gandotinib 0.042 | tozasertib 0.001 | doramapimod 0.055 | bafetinib -0.067 | [2] 0.027 | nilotinib -0.041 | [3] -0.026 | dasatinib 0.022 | [4] -0.051 | [5] 0.024 | quisinostat -0.082 | tipifarnib -0.038 | [6] 0.047 | [7] 0.002 | [8] 0.052
